# The supplement of paper PMC12578635
# The list shows a part of the results. Rule as the data show it: active = 150% or more and inactive = the rest. Most values come without repeats; read them as rough.
# Tested on: Staphylococcus aureus JE2-lux inside RAW 264.7 macrophages
# Experiment: intracellular bacterial bioluminescence relative to DMSO vehicle; higher = higher intracellular bacterial metabolic activity
# Settings: 10 µM; treatment time 4 h; gentamicin 50 µg/ml
row,Structure (SMILES),intracellular bacterial bioluminescence
1,Fc1cccc2sc(NCc3ccccc3)nc12,inactive: 52.5%
2,COc1ccc(CCNC(=O)c2cnc3c(C)cccc3c2O)cc1OC,inactive: 86.8%
3,Cc1cccnc1NC(=O)NC1CC(=O)N(c2ccc(Cl)cc2)C1 (configuration not stated),inactive: 97.6%
4,COc1ccc(-c2noc(N3CCC(C(=O)Nc4cccc(C)c4C)CC3)n2)cc1,inactive: 104%
5,Cc1ccc2cc(CCNC(=O)c3ccc(Br)o3)c(=O)[nH]c2c1C,inactive: 99.1%
6,Cc1ccc(-n2nc3c(c2NC(=O)c2ccc(OC(C)C)cc2)CS(=O)C3)cc1 (configuration not stated),inactive: 108%
7,CCCN1CCC2(CC1)NC(=O)N(CC(=O)NCc1ccco1)C2=O,inactive: 105%
8,O=C(NCc1ccccc1)c1cnc2ccccc2c1O,inactive: 97.9%
9,Cc1cc2cc(CCNC(=O)C(C)Oc3ccccc3)c(=O)[nH]c2cc1C (configuration not stated),inactive: 91.5%
10,COc1ccc2o/c(=N\c3sc4c(c3C(N)=O)CCCC4)c(C(N)=O)cc2c1,inactive: 97.2%
11,COc1ccc(Cn2c(C)cn3c4c(=O)n(CCCO)c(=O)n(C)c4nc23)cc1,inactive: 92.3%
12,O=C(Cn1cnc2c(cnn2-c2cccc(Cl)c2)c1=O)OCc1ccccc1,inactive: 93.7%
13,Cc1ccccc1OCC(=O)Nc1ccccc1SCc1nnc(-c2ccccc2)o1,inactive: 34.1%
14,COCCN1C(=O)C2C(c3ccccc3O)NN(Cc3ccccc3)C2C1=O (configuration not stated),inactive: 98.8%
15,C=CCN1CC(C(=O)Nc2ccc3c(C)cc(C)nc3n2)CC1=O (configuration not stated),inactive: 109%
16,CN1/C(=C(\C#N)C(=O)c2ccc(Cl)s2)Nc2ccccc21,inactive: 75.2%
17,Cc1cccn2c(=O)c(/C=C(\C#N)C(N)=O)c(Oc3ccc(Cl)cc3)nc12,inactive: 81.4%
18,CCOC(=O)CSc1ccc2nnc(-c3cccs3)n2n1,inactive: 120%
19,Cc1cc(NC(=O)CCCN2C(=O)c3cccc4cccc(c34)C2=O)n(-c2ccccc2)n1,inactive: 56%
20,Cc1ccc2oc(=O)c(-c3nc4ccc([N+](=O)[O-])cc4[nH]3)cc2c1,inactive: 107%
21,COc1ccc2nc(NC(=O)Nc3ccc(C)cc3Cl)sc2c1,inactive: 102%
22,Cc1cc(C)c2cc(C#N)c(N3CCCN(C(=O)NCc4ccccc4)CC3)nc2c1,inactive: 118%
23,COc1ccc(C2CC(c3cccc(NS(C)(=O)=O)c3)=NN2S(=O)(=O)c2ccc(C)cc2)cc1 (configuration not stated),inactive: 52.3%

# An excerpt of these results, with bars between the fields:
row | Structure (SMILES) | intracellular bacterial bioluminescence
3 | Cc1cccnc1NC(=O)NC1CC(=O)N(c2ccc(Cl)cc2)C1 (configuration not stated) | inactive: 97.6%
4 | COc1ccc(-c2noc(N3CCC(C(=O)Nc4cccc(C)c4C)CC3)n2)cc1 | inactive: 104%
5 | Cc1ccc2cc(CCNC(=O)c3ccc(Br)o3)c(=O)[nH]c2c1C | inactive: 99.1%
6 | Cc1ccc(-n2nc3c(c2NC(=O)c2ccc(OC(C)C)cc2)CS(=O)C3)cc1 (configuration not stated) | inactive: 108%
7 | CCCN1CCC2(CC1)NC(=O)N(CC(=O)NCc1ccco1)C2=O | inactive: 105%
8 | O=C(NCc1ccccc1)c1cnc2ccccc2c1O | inactive: 97.9%
11 | COc1ccc(Cn2c(C)cn3c4c(=O)n(CCCO)c(=O)n(C)c4nc23)cc1 | inactive: 92.3%
12 | O=C(Cn1cnc2c(cnn2-c2cccc(Cl)c2)c1=O)OCc1ccccc1 | inactive: 93.7%
13 | Cc1ccccc1OCC(=O)Nc1ccccc1SCc1nnc(-c2ccccc2)o1 | inactive: 34.1%
14 | COCCN1C(=O)C2C(c3ccccc3O)NN(Cc3ccccc3)C2C1=O (configuration not stated) | inactive: 98.8%
15 | C=CCN1CC(C(=O)Nc2ccc3c(C)cc(C)nc3n2)CC1=O (configuration not stated) | inactive: 109%
17 | Cc1cccn2c(=O)c(/C=C(\C#N)C(N)=O)c(Oc3ccc(Cl)cc3)nc12 | inactive: 81.4%
18 | CCOC(=O)CSc1ccc2nnc(-c3cccs3)n2n1 | inactive: 120%
19 | Cc1cc(NC(=O)CCCN2C(=O)c3cccc4cccc(c34)C2=O)n(-c2ccccc2)n1 | inactive: 56%
20 | Cc1ccc2oc(=O)c(-c3nc4ccc([N+](=O)[O-])cc4[nH]3)cc2c1 | inactive: 107%
21 | COc1ccc2nc(NC(=O)Nc3ccc(C)cc3Cl)sc2c1 | inactive: 102%
22 | Cc1cc(C)c2cc(C#N)c(N3CCCN(C(=O)NCc4ccccc4)CC3)nc2c1 | inactive: 118%
23 | COc1ccc(C2CC(c3cccc(NS(C)(=O)=O)c3)=NN2S(=O)(=O)c2ccc(C)cc2)cc1 (configuration not stated) | inactive: 52.3%

# (further entries)

row,Structure (SMILES),intracellular bacterial bioluminescence
1,Cc1oc2ncnc(OCC(=O)NCC3CCCO3)c2c1C (configuration not stated),inactive: 66%
2,COc1ccc(-c2nc3cc(C)ccn3c2NC(=O)CCc2ccccc2)cc1,inactive: 126%
3,CCOCCCNC(=O)CCn1cnc2c(-c3ccc(C)cc3)noc2c1=O,inactive: 67.3%
4,O=C(CC1Nc2ccccc2NC1=O)Nc1cc(Cl)cc(Cl)c1 (configuration not stated),inactive: 95.9%
5,O=C1CC(N2CCN(Cc3ccccc3)CC2)C(=O)N1 (configuration not stated),inactive: 101%
6,C=CCn1/c(=N/C(=O)c2cc(=O)c3ccccc3o2)sc2cccc(OC)c21,inactive: 140%
7,O=C1NC(=S)S/C1=C\c1nc2ccccc2[nH]1,inactive: 106%
8,COc1ccc2nc(NCCCNC(=S)Nc3cccc(Cl)c3)c(C#N)cc2c1,inactive: 72.5%
9,Cc1cc(C)nc(-n2[nH]c3nccc(-c4ccc5c(c4)OCO5)c3c2=O)n1,inactive: 136%
10,COc1cc(NC(=O)Cn2c(=O)n3nc(-c4ccc(C)cc4)nc3c3ccccc32)cc(OC)c1,inactive: 76.2%
11,COc1ccc(C(=O)N(Cc2ccc(Cl)cc2)c2nc3[nH]c(C)c(C)c(=O)n3n2)cc1,inactive: 86.5%
12,Cc1ccc(-c2nnc3ccccc3c2C(=O)Nc2cc(C)ccn2)cc1,inactive: 99%
13,Cc1ccc(Cn2c(=O)c3ccccc3n3c(=S)[nH]nc23)cc1,inactive: 107%
14,COc1cccc(C(=O)Nc2nc3ccc([N+](=O)[O-])cc3s2)c1OC,inactive: 87.3%
15,Cn1c2c(c(=O)n(C)c1=O)C(c1ccncc1)C1=C(CCCC1=O)N2 (configuration not stated),inactive: 119%
16,Cc1ccc(Nc2c(C(=O)NC3CCCC3)cnc3c2c(C)nn3C)cc1,inactive: 98.8%
17,O=C(Nc1ccc2c(c1)C(=O)NC2=O)c1cccc(C(F)(F)F)c1,inactive: 128%
18,O=C(CC1Nc2cccc3cccc(c23)NC1=O)Nc1ccc(F)cc1 (configuration not stated),inactive: 94.7%
19,CCCCN1C(=O)C(C#N)=C(C)/C(=C/Nc2ccccc2C(=O)O)C1=O,inactive: 92.8%
20,COc1ccc(N2CCCS2(=O)=O)cc1NC(=O)c1cccc(C(F)(F)F)c1,inactive: 98%
21,CCc1ccc(-c2cc(C(=O)N/N=C(\C)c3ccncc3)[nH]n2)cc1,active: 177%
22,O=[N+]([O-])c1ccc2oc(SCc3nc4ccccn4c3Br)nc2c1,inactive: 60.2%
23,Nc1c(C(=O)Nc2ccc(Cl)c(Cl)c2)c2ccccn2c1C(=O)c1cccs1,inactive: 56.6%

row,Structure (SMILES),intracellular bacterial bioluminescence
1,CCCN1CCN(c2nn3nnnc3c3ccccc23)CC1,active: 179%
2,Cc1cc(N2CCN(c3ccc(O)cc3)CC2)nc(-n2nc(C)cc2C)n1,inactive: 52.9%
3,CCOC(=O)C1CCN(c2nn3c(NC(C)(C)C)c(-c4cccc(F)c4)nc3s2)CC1,inactive: 127%
4,Cc1cc(N2C(=O)c3ccccc3C2C(=O)NCCC(C)C)ccc1Br (configuration not stated),inactive: 124%
5,CCCOc1ccc(Oc2nc(C)nc3sc(C(=O)OCC)c(C)c23)cc1,inactive: 91%
6,O=c1c2ccccc2nc2c3ccccc3c(NCCCO)nn12,inactive: 112%
7,O=C(CC1(O)C(=O)Nc2ccc(Br)cc21)c1ccccn1 (configuration not stated),inactive: 104%
8,Cc1ccc(NC(=O)N(Cc2ccco2)Cc2cc3cccc(C)c3nc2Cl)cc1,inactive: 95.7%
9,Cc1cccn2cc(-c3ccc(NC(=O)c4ccco4)cc3)nc12,inactive: 82%
10,O=C(NCc1cccnc1)C(=O)NCC1OCCN1C(=O)c1ccc(Cl)cc1 (configuration not stated),inactive: 85.4%
11,O=c1[nH]c2c(s1)C(c1ccc(O)cc1)C1C3CCC(C3)C1S2 (configuration not stated),inactive: 134%
12,Cn1c(=O)n(C)c2cc(NC(=O)c3ncoc3-c3ccc(F)cc3)ccc21,inactive: 98.5%
13,Nc1c(C(=O)Nc2ccc(F)cc2)sc2nc3cc4c(cc3cc12)OCO4,inactive: 110%
14,O=C(Cn1c2ccccc2n2c(=O)cc(-c3ccccc3)nc12)Nc1ccccc1C(F)(F)F,inactive: 103%
15,Cc1nn2c(C(F)(F)F)cc(-c3ccccn3)nc2c1-c1ccccc1,inactive: 74.7%
16,CCOc1ccccc1NC(=O)c1cnc2sccn2c1=O,inactive: 116%
17,COc1ccc(CCN2CCCn3c2nc2c3c(=O)[nH]c(=O)n2C)cc1OC,inactive: 82.2%
18,O=C(O)c1ccc(CN2C(=O)CSC2=O)cc1,inactive: 115%
19,O=c1/c(=C/c2cccc([N+](=O)[O-])c2)sc2nc(-c3ccncc3)nn12,inactive: 52.6%
20,COc1ccc2nc(CN3CCC(NC(C)=O)(c4ccccc4F)CC3)ccc2c1,inactive: 89.7%
21,COc1ccc(NC(=S)NCCNc2nc3cc4c(cc3cc2C#N)OCO4)c(OC)c1,inactive: 100%
22,COc1ccc(C)cc1NC(=O)CCN1C(=O)c2ccccc2S1(=O)=O,inactive: 57.9%
23,O=C(CSc1c(-c2ccccc2)[nH]c2ccccc12)NCc1ccco1,inactive: 101%

row,Structure (SMILES),intracellular bacterial bioluminescence
1,Cn1c(=O)c(Nc2ccc(O)cc2)c2c3c(cccc31)C(=O)c1ccccc1-2,inactive: 61.7%
2,Cc1ccc(Cc2nn3c(SCC(=O)c4ccc(C)cc4)nnc3[nH]c2=O)cc1,inactive: 92.6%
3,O=C1Nc2ccccc2/C1=C1/SC(=S)N(Nc2ccccc2)C1=O,inactive: 83.2%
4,CC(=O)Nc1ccc(S(=O)(=O)Nc2cncc(C(=O)NC3CCCC3)c2)cc1,inactive: 115%
5,Cc1cccc(NC(=O)C2CCN(C(=O)NCc3ccccc3)CC2)c1C,inactive: 66.3%
6,CCOC(=O)c1c(-c2ccccc2)csc1NC1SC(=O)N(c2ccccc2)C1=O (configuration not stated),inactive: 101%
7,Cc1ccccc1C(=O)NCCNc1nc2c(c(=O)n(C)c(=O)n2C)n1Cc1ccccc1,active: 179%
8,CCOC(=O)c1c(C)oc2c1/C(=C/NCCO)C(=O)c1ccccc1-2,inactive: 112%
9,CCc1ccc(N2C(=O)NC3CC2(C)Oc2ccccc23)cc1 (configuration not stated),inactive: 20.9%
10,Cc1ccc(-c2nc3scc(CCNS(=O)(=O)c4ccc5c(c4)OCCO5)n3n2)cc1,inactive: 107%
11,Cc1ccc2nc(-c3ccc(F)cc3)nc(SCC(=O)NCC3CCCO3)c2c1 (configuration not stated),inactive: 88.3%
12,Cn1cc(NC(=O)c2ccc(C(F)(F)F)nc2N2CCN(CCO)CC2)cn1,inactive: 89.3%
13,CCOC(=O)c1cc([N+](=O)[O-])sc1NC(=O)CC,inactive: 92.9%
14,COc1ccc(S(=O)(=O)CCC(=O)Nc2nc3c(s2)COc2ccccc2-3)cc1,inactive: 63.8%
15,Cc1cc2cc3c(cc2nc1SCC(=O)Nc1ccc2c(c1)OCO2)CCC3,inactive: 113%
16,Cc1ccc2cc3cc(C(=O)OC(C(=O)NCC4CCCO4)c4ccccc4F)sc3nc2c1 (configuration not stated),inactive: 77.2%
17,NC(=O)c1ccsc1NC(=O)c1ccc2c(c1)OCCO2,inactive: 111%
18,CCCCOc1ccc(/C=C(\C#N)c2nc3ccccc3[nH]2)cc1OC,inactive: 101%
19,COC(=O)c1ccccc1NC(=O)c1cnc(C)nc1C,inactive: 104%
20,O=C(O)c1cccnc1Nc1cccc([N+](=O)[O-])c1,inactive: 97.2%
21,Cc1csc(-c2csc(S(=O)(=O)N3CC=C(c4ccccc4)CC3)c2)n1,inactive: 95.4%
22,CCSc1ccccc1C(=O)Nc1sc2c(c1C(N)=O)CCC(C)C2 (configuration not stated),inactive: 93.4%
23,COC(=O)c1ccc2nc(NC(=O)/C=C/c3cccs3)sc2c1,inactive: 116%
